# Publication PMC2954226, “Structure of the γ-D-glutamyl-L-diamino acid endopeptidase YkfC from Bacillus cereus in complex with L-Ala-γ-D-Glu: insights into substrate recognition by NlpC/P60 cysteine peptidases” (Acta Crystallographica Section F: Structural Biology and …, 2010)
# Results are given in words; binding and its absence hold for the method and conditions named.
# B1: γ-D-glutamyl-L-diamino acid endopeptidase YkfC from Bacillus cereus (enzyme, UniProt Q736M3 24-333)
# chain: EEKKDSKAFIDVSAATLWTAPDSLRPIDVPSATNPVDLWKWTKSMTLDEKLWLTNANKLETQALLGQEVTVVDKKGDWVKVLVHGQPTPRNEEGYPGWMPEKQLTYNQEFADKTNEPFVLVTKPTAILYINPSEKHKSLEVSYNTRLPLLSEDTISYRVLLPNGQKAWLRKNDGTFYRSQNDIPTPAADDLINTGKMFLGLPYIWAGTSGFGFDCSGFTHTIYKSHGITIPRDSGPQSRNGVAVDKEHLQKGDLIFFAHDQGKGSVHHVAMYIGDGNMIHSPRAERSVEIIPLNTPGYIEEYAGARRYLP
# modifications: selenomethionine derivative; catalytic Cys238 oxidized (OCS238) in the crystal
# Biological target: γ-D-glutamyl-L-diamino acid endopeptidase YkfC from Bacillus cereus (Bacillus cereus NRS248 ATCC 10987) (UniProt Q736M3)
# Test: SEC; analytical size-exclusion chromatography, 0.8 x 30 cm Shodex Protein KW-803 column pre-calibrated with gel-filtration standards; both purified
binder,measurement,value
B1,binding,no binding
